Data taken from patent publication US20080241152A1 (VEGENICS, published 2008).
Results are given in words; binding and its absence hold for the method and conditions named. In cells and extracts the contact can be indirect. Some binding calls cover weakened binding; strength is not graded here.

The chains behind the UniProt entries cited, without tags or fusion partners. Where a name states a change or a piece, a line headed by the entry shows the natural chain unless it says otherwise. A line that says so, or that is headed by a name, gives the form on record, which may keep a tag or linker.
recombinant Flt4 extracellular domain with C-terminal 6xHis tag (baculovirus), coupled to Sepharose (P35916, form named): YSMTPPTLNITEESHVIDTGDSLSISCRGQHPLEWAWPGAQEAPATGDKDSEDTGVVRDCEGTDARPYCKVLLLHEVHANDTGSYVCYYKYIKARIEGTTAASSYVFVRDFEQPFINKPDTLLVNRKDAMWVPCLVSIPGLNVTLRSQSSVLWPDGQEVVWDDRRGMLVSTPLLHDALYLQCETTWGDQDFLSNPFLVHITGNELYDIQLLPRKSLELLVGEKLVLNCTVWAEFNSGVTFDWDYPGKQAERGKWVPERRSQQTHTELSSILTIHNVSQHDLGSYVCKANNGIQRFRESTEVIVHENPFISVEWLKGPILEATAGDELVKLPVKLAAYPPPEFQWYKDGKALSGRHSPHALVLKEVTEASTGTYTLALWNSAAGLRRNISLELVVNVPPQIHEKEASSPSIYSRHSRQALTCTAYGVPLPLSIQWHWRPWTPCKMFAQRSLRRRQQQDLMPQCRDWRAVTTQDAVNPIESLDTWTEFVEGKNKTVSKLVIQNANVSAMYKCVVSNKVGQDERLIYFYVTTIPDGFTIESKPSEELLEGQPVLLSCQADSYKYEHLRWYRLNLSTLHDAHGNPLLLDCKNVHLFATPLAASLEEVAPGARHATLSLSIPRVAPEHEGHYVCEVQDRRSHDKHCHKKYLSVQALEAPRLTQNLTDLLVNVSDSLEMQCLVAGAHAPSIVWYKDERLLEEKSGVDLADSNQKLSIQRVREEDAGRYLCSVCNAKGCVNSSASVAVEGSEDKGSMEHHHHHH

Target: recombinant Flt4 extracellular domain with C-terminal 6xHis tag (baculovirus), coupled to Sepharose (human) (UniProt P35916)
Assay: pull-down of 35S-labelled Bosc23 medium with VEGFR-3 extracellular domain coupled to sepharose

- binding: binds
B1: mouse VEGF-C (recombinant, medium of Bosc23 cells transfected with mouse VEGF-C cDNA) (ligand)
chain: FESGLGFSEAEPDGGEVKAFEGKDLEEQLRSVSSVDELMSVLYPDYWKMYKCQLRKGGWQQPTLNTRTGDSVKFAAAHYNTEILKSIDNEWRKTQCMPREVCIDVGKEFGAATNTFFKPPCVSVYRCGGCCNSEGLQCMNTSTGYLSKTLFEITVPLSQGPKPVTISFANHTSCRCMSKLDVYRQVHSIIRRSLPATLPQCQAANKTCPTNYVWNNYMCRCLAQQDFIFYSNVEDDSTNGFHDVCGPNKELDEDTCQCVCKGGLRPSSCGPHKELDRDSCQCVCKNKLFPNSCGANREFDENTCQCVCKRTCPRNQPLNPGKCACECTENTQKCFLKGKKFHHQTCSCYRRPCANRLKHCDPGLSFSEEVCRCVPSYWKRPHLN
